Data from paper PMC8467329.
No constants are given. Whether binding was seen depends on the method and setting. In cells and extracts the contact can be indirect. Some entries that bind do so weakly or less than the wild type.

The chains behind the UniProt entries cited, without tags or fusion partners.
UniProt P83949: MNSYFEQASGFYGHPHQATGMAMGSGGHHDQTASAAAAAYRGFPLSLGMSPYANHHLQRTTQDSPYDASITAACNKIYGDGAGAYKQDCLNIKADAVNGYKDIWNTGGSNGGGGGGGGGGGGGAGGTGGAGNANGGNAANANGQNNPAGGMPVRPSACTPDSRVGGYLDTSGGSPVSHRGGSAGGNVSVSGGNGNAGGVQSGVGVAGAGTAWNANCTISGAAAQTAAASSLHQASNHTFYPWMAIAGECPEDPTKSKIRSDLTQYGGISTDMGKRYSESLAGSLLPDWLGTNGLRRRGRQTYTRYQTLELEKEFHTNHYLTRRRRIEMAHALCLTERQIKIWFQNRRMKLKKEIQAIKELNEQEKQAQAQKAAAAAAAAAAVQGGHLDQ
UniProt P92177: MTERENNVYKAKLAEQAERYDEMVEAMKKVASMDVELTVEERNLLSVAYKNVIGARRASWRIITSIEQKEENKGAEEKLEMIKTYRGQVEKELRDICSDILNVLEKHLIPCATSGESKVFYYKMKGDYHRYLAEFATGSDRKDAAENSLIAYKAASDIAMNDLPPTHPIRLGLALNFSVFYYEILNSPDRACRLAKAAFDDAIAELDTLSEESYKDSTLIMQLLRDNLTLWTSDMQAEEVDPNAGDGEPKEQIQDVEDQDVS

Biological target: Ultrabithorax (Ubx) (Drosophila melanogaster (endogenous in w1118 adult fly heads)) (UniProt P83949)
Assay: co-IP; lysate of w1118 adult fly heads; IP with anti-14-3-3ε antibody and with anti-Ubx antibody; conducted as previously described (ref. 25)

binding: binds
Substance: 14-3-3ε protein (from UniProt P92177 1-262)
